Results are given in words; binding and its absence hold for the method and conditions named. Binding seen in cells or lysates may run through a third protein. Some entries that bind do so weakly or less than the wild type. Where a sequence is shown, tags or fusion partners need not be part of it.
Molecular target: FLAG-tagged PPARγ (UniProt P37238)
Assay: co-IP; 293T cells cotransfected with WT p53 (HIS-tagged) or p53S (MYC-tagged), HA-PGC–1α and FLAG-PPARγ; lysates in TEB150 buffer (50 mM HEPES pH 7.3, 150 mM NaCl, 2 mM MgCl2, 5 mM EGTA, 0.5% Triton X-100, 10% glycerol) for 6 h at 4 °C with anti-Tag or anti-Flag antibody cross-linked to agarose beads; immunoblot

Sequences of proteins named here, by UniProt entry; tags and fusion partners are left off.
UniProt P37238: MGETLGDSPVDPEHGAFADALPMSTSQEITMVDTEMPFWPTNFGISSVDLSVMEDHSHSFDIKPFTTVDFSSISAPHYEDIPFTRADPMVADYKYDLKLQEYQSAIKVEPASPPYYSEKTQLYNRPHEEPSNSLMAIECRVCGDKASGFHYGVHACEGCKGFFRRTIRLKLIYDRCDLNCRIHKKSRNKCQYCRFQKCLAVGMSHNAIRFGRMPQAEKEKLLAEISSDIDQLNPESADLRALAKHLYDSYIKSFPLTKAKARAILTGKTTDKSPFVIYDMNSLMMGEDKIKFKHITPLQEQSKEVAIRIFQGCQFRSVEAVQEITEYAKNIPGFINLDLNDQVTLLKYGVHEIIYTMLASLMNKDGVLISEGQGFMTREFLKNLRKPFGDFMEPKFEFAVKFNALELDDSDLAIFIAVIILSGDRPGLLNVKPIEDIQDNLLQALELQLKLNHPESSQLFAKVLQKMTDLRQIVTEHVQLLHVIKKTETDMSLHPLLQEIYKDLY

B1: HA-tagged PGC–1α (protein, UniProt O70343 1-797)
chain: MAWDMCSQDSVWSDIECAALVGEDQPLCPDLPELDLSELDVNDLDTDSFLGGLKWCSDQSEIISNQYNNEPANIFEKIDEENEANLLAVLTETLDSLPVDEDGLPSFDALTDGAVTTDNEASPSSMPDGTPPPQEAEEPSLLKKLLLAPANTQLSYNECSGLSTQNHAANHTHRIRTNPAIVKTENSWSNKAKSICQQQKPQRRPCSELLKYLTTNDDPPHTKPTENRNSSRDKCASKKKSHTQPQSQHAQAKPTTLSLPLTPESPNDPKGSPFENKTIERTLSVELSGTAGLTPPTTPPHKANQDNPFKASPKLKPSCKTVVPPPTKRARYSECSGTQGSHSTKKGPEQSELYAQLSKSSGLSRGHEERKTKRPSLRLFGDHDYCQSLNSKTDILINISQELQDSRQLDFKDASCDWQGHICSSTDSGQCYLRETLEASKQVSPCSTRKQLQDQEIRAELNKHFGHPCQAVFDDKSDKTSELRDGDFSNEQFSKLPVFINSGLAMDGLFDDSEDESDKLSYPWDGTQPYSLFDVSPSCSSFNSPCRDSVSPPKSLFSQRPQRMRSRSRSFSRHRSCSRSPYSRSRSRSPGSRSSSRSCYYYESSHYRHRTHRNSPLYVRSRSRSPYSRRPRYDSYEAYEHERLKRDEYRKEHEKRESERAKQRERQKQKAIEERRVIYVGKIRPDTTRTELRDRFEVFGEIEECTVNLRDDGDSYGFITYRYTCDAFAALENGYTLRRSNETDFELYFCGRKQFFKSNYADLDTNSDDFDPASTKSKYDSLDFDSLLKEAQRSLRR
- binding: binds

Reference: PMC9960896
